{"sequences": {"note": "Amino acid sequences for entries named in this document (tags omitted).", "UniProt Q8WUM4": "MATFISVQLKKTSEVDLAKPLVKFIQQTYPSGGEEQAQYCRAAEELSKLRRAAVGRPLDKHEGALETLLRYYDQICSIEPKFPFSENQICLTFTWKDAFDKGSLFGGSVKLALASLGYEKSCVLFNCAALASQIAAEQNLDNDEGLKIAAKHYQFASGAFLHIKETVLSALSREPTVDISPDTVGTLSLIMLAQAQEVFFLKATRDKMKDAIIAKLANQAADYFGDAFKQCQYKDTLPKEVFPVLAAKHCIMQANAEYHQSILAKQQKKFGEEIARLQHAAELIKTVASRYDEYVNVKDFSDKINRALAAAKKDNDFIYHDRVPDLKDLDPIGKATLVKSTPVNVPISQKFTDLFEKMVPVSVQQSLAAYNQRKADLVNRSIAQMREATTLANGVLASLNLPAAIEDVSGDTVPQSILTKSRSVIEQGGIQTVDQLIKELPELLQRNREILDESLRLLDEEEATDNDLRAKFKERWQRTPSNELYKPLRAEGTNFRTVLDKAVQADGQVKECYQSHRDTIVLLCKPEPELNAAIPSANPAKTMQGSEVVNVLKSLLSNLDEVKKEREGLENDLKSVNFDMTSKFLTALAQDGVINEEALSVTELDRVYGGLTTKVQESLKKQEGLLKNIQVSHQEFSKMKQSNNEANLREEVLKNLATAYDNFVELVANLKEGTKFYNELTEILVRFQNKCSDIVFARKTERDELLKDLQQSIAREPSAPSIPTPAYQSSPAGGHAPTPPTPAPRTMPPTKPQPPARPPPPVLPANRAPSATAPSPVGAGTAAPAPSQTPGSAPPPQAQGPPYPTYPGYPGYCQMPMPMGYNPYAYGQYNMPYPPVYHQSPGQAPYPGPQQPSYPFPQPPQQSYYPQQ", "UniProt Q96B97": "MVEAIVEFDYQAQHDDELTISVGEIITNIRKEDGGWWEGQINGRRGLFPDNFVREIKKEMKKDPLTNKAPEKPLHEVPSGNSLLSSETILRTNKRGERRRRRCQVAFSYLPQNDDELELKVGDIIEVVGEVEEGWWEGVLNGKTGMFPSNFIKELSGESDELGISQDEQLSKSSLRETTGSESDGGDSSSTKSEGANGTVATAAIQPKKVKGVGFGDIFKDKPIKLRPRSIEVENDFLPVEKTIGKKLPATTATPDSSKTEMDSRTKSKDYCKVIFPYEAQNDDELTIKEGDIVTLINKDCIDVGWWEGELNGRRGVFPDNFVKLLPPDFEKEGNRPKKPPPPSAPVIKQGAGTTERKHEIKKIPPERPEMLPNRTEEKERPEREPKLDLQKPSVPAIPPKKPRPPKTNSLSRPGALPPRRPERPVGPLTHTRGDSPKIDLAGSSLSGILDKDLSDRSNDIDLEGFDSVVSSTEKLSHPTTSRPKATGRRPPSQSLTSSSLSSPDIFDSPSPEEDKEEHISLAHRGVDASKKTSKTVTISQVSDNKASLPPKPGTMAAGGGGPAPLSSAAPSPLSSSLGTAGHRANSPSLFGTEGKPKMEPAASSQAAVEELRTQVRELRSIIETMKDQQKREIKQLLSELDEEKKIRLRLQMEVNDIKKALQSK"}, "source": "paper doi:10.1101/2025.07.06.663356", "molecules": {"B1": {"name": "CEP55, endogenous (protein, UniProt Q53EZ4 1-464)", "chain": "MSSRSTKDLIKSKWGSKPSNSKSETTLEKLKGEIAHLKTSVDEITSGKGKLTDKERHRLLEKIRVLEAEKEKNAYQLTEKDKEIQRLRDQLKARYSTTTLLEQLEETTREGERREQVLKALSEEKDVLKQQLSAATSRIAELESKTNTLRLSQTVAPNCFNSSINNIHEMEIQLKDALEKNQQWLVYDQQREVYVKGLLAKIFELEKKTETAAHSLPQQTKKPESEGYLQEEKQKCYNDLLASAKKDLEVERQTITQLSFELSEFRRKYEETQKEVHNLNQLLYSQRRADVQHLEDDRHKTEKIQKLREENDIARGKLEEEKKRSEELLSQVQFLYTSLLKQQEEQTRVALLEQQMQACTLDFENEKLDRQHVQHQLHVILKELRKARNQITQLESLKQLHEFAITEPLVTFQGETENREKVAASPKSPTAALNESLVECPKCNIQYPATEHRDLLVHVEYCSK"}, "B2": {"name": "CHMP4B, endogenous (protein, UniProt Q9H444 1-224)", "chain": "MSVFGKLFGAGGGKAGKGGPTPQEAIQRLRDTEEMLSKKQEFLEKKIEQELTAAKKHGTKNKRAALQALKRKKRYEKQLAQIDGTLSTIEFQREALENANTNTEVLKNMGYAAKAMKAAHDNMDIDKVDELMQDIADQQELAEEISTAISKPVGFGEEFDEDELMAELEELEQEELDKNLLEISGPETVPLPNVPSIALPSKPAKKKEEEDDDMKELENWAGSM"}}, "note": "No constants are given. Whether binding was seen depends on the method and setting. Binding seen in cells or lysates may run through a third protein. A yes stands for co-enrichment or nearness to the bait. Other partners may have been found."}
{"biological_target": "ALIX (ALG-2 interacting protein X), endogenous (human (endogenous in HCC1187, BT-549, MDA-MB-231, HeLa, HEK-293T)) (UniProt Q8WUM4)", "test": "affinity purification with mass spectrometry"}
{"molecule": "CIN85, endogenous (from UniProt Q96B97 1-665)", "binding": "binds"}
{"molecule": "B1", "binding": "binds"}
{"molecule": "B2", "binding": "binds"}
